{"source": "PubChem BioAssay AID624297", "about": "(National Center for Advancing Translational Sciences (NCATS), 2012)", "note": "Among all 340,000 compounds or so, about 6,200 (1.8%) were called active. Inconclusive means that the source gave no clear call. Such entries were picked first, then a sample of the others. Calls follow the shape of the dose curve; as a rule, active = well fitted activation curve with a large enough effect; inconclusive = small, poorly fitted or top-dose-only effect; inactive = no such curve, though single readings can be large or run the other way. Where the call is inconclusive, the potency comes from a doubtful curve fit. Potency is read from the fitted curve at half-maximal effect.", "data": [{"assay": "A quantitative high throughput screen for small molecules that induce DNA re-replication in SW480 colon adenocarcinoma cells; also: nearly all actives have a fitted effect of over 55% in size; as to re-replication activation: % of control where 0% means no effect.", "settings": "Hoechst DNA content imaging, 48 h; re-replication activation: at 46.1 µM (top of the series) unless noted", "outline": "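250 cells/well; 23 nL cpd via pin tool; 48 hr, 37 C, 5% CO2; Hoechst 40 min; imager read of total nuclear intensity, ex 405/em 500-530 nm.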", "values": [{"compound": "CCOC(=O)C1CCN(Cc2cnc(Oc3ccc(OC)cc3)s2)CC1", "Potency": "inactive"}, {"compound": "CCn1c(C)nc2cc(S(=O)(=O)C(F)F)ccc21", "Potency": "inactive"}, {"compound": "NC(=O)c1sc2nc(-c3ccccc3)c3c(c2c1N)CCCC3", "Potency": "active: 14.6 µM"}, {"compound": "Clc1cccc(C2Nc3cccc4cccc(c34)N2)c1", "Potency": "inconclusive: 29.1 µM [activator, single point]"}, {"compound": "CCOC(=O)/C(=C\\c1ccc([N+](=O)[O-])o1)NC(=O)c1ccccc1", "Potency": "inconclusive: 29.1 µM [activator, single point]"}, {"compound": "O=C(CN1C(=O)C2CC=CCC2C1=O)Nc1nc(-c2ccc(F)c(F)c2)cs1", "note": "(stereo not given)", "Potency": "inactive"}, {"compound": "CCN(CC)CCn1c2ccccc2c2nc3ccc([N+](=O)[O-])cc3cc21", "Potency": "active: 20.6 µM"}, {"compound": "O=C(c1ccco1)N1CCN(C(=O)C2CC(=O)N(c3ccc(Cl)cc3)C2)CC1", "note": "(stereo not given)", "Potency": "inactive"}, {"compound": "Cc1cc(C)c(S(=O)(=O)N2CCN(C(=O)C3CCCO3)CC2)c(C)c1", "note": "(stereo not given)", "re-replication activation": "inconclusive: 74.5% [activator]"}, {"compound": "CCN(CC)c1ccc(NC(=O)c2ccc3c(c2)OCO3)cc1", "Potency": "inconclusive: 29.1 µM [activator, single point]"}, {"compound": "CSc1nc(-c2ccc(F)cc2)cc(=O)[nH]1", "Potency": "active: 9.2 µM"}, {"compound": "CC(C)OC(=O)CSc1nc(Cc2cccs2)nc2ccccc12", "Potency": "inconclusive: 3.66 µM [activator, full curve, poor fit]"}, {"compound": "CC1(C)Cc2c(C#N)c(SCC(=O)c3ccccc3)nc(N3CCOCC3)c2CO1", "Potency": "inconclusive: 36.6 µM [activator, partial curve, poor fit]"}, {"compound": "Fc1cccc(/C=N/Nc2cc(N3CCOCC3)ncn2)c1", "Potency": "inconclusive: 14.6 µM [activator, partial curve]"}, {"compound": "Cc1ccc(-n2c3nc(=O)n(C)c(=O)c-3cc3ccccc32)cc1", "Potency": "inconclusive: 20.6 µM [activator, partial curve, poor fit]"}, {"compound": "Cc1ccc(OCc2cc(C(=O)NC(C)Cc3cccc(C)n3)no2)cn1", "note": "(stereo not given)", "Potency": "inconclusive: 0.92 µM [activator, full curve, poor fit]"}, {"compound": "Cc1cccc(Nc2nc(NCCCN3CCOCC3)nc(N)c2[N+](=O)[O-])c1", "Potency": "inconclusive: 29.1 µM [activator, single point]"}, {"compound": "Cc1cc(C(F)(F)F)n2nc(-c3cccs3)cc2n1", "Potency": "inactive"}, {"compound": "O=C1CC(c2ccccc2)CN1Cc1ccccc1", "note": "(stereo not given)", "Potency": "inconclusive: 31.6 µM [activator, single point]"}, {"compound": "CCCCCCCCOC(=O)c1c(CSC(=N)N)n(C)c2cc(Br)c(OC(C)=O)cc12", "Potency": "inconclusive: 29.1 µM [activator, single point]"}, {"compound": "COc1ccc(CN(C)CCCn2cnc3c(OCc4ccccc4)ncnc32)cc1OC", "Potency": "inactive"}, {"compound": "CCC(C)c1ccccc1N1CC(C(=O)N(C)CC(=O)Nc2cccc(F)c2)CC1=O", "note": "(stereo not given)", "Potency": "inconclusive: 0.13 µM [activator, partial curve, poor fit]"}, {"compound": "C=C(C)COc1ccc(-c2ncnc(C(F)(F)F)c2-c2ccc(OC)cc2)c(O)c1", "Potency": "inconclusive: 18.4 µM [activator, partial curve, poor fit]"}, {"compound": "Fc1ccc(-c2n[nH]c(=S)n2-c2ccc3c(c2)OCCO3)cc1", "Potency": "inactive"}, {"compound": "CN1CC(c2ccccc2Cl)C2(COc3ccccc3C2=O)C12C(=O)Nc1ccccc12", "note": "(stereo not given)", "Potency": "inconclusive: 29.1 µM [activator, single point]"}, {"compound": "O=S(=O)(c1ccc2[nH]c3c(c2c1)CCCC3)N1CCCCC1", "re-replication activation": "inconclusive: 20.5% [activator]"}, {"compound": "CCNC(=S)Nc1cc(OCC)c(NC(=O)c2ccco2)cc1OCC", "Potency": "inactive"}, {"compound": "O=S(=O)(c1ccc(N2CCC(c3ccc(Cl)cc3)=N2)cc1)N(CCO)CCO", "Potency": "active: 0.58 µM"}, {"compound": "O=C1CCN(CCc2ccccc2)CCN1[C@H](CSc1ccccc1)Cc1ccccc1", "Potency": "inconclusive: 14.6 µM [activator, single point]"}, {"compound": "CCOC(=O)C1CCN(C(=O)C2(NC(=O)Nc3ccccc3C)CCCCC2)CC1", "Potency": "inconclusive: 2.59 µM [activator, partial curve, poor fit]"}, {"compound": "COc1ccc(C(=O)N(CCc2ccccc2)Cc2cccs2)c(OC)c1", "Potency": "inconclusive: 29.1 µM [activator, single point]"}, {"compound": "Cc1ccc(N2C(=O)N(CC(=O)NCc3ccccc3Cl)C(=O)C2C)cc1", "note": "(stereo not given)", "Potency": "inconclusive: 8.91 µM [activator, partial curve, poor fit]"}, {"compound": "Cc1cc(NCC2CCCO2)n2c(nc3ccccc32)c1C#N", "note": "(stereo not given)", "Potency": "inactive"}, {"compound": "O=C(NCCCN1CCOCC1)c1ccc2c(=O)n(Cc3ccc(Cl)cc3)c(=S)[nH]c2c1", "Potency": "inconclusive: 20.6 µM [activator, single point]"}, {"compound": "CSc1ccc(CN(C)CC(=O)Nc2ccc(C)cc2Br)cc1", "Potency": "inconclusive: 29.1 µM [activator, single point]"}, {"compound": "CCOc1ccc(NC(=O)NCCCn2c(C)nc3cc(C)c(C)cc32)cc1", "Potency": "inactive"}, {"compound": "O=C(CN1C(=O)/C(=C/c2ccc(Cl)cc2)SC1=S)NC1C=CS(=O)(=O)C1", "note": "(stereo not given)", "re-replication activation": "inconclusive: 32.4% [activator]"}, {"compound": "CCOc1ccc(C(=O)/C=C/c2ccc(SC)cc2)cc1", "Potency": "inconclusive: 31.6 µM [activator, single point]"}, {"compound": "CCOC(=O)c1ccc2ncc(C(=O)OCC)c(NCCN(C)C)c2c1", "Potency": "inactive"}, {"compound": "CC(C)c1nnc(NC(=O)CCS(=O)(=O)c2nc(-c3cccs3)cc(C(F)(F)F)n2)s1", "Potency": "inconclusive: 3.26 µM [activator, full curve, poor fit]"}, {"compound": "Cc1ccc(O)c(CP(=O)(c2ccccc2)c2ccccc2)c1", "Potency": "inactive"}, {"compound": "COc1ccc(/C=C2\\CC/C(=C\\c3ccc(OC)c(OC)c3)C2=O)cc1OC", "Potency": "inconclusive: 20 µM [activator, single point]"}, {"compound": "Cc1cccc(OCC(=O)NCC(C)(C)N2CCOCC2)c1", "Potency": "inconclusive: 29.1 µM [activator, partial curve, poor fit]"}, {"compound": "COC(=O)c1ccccc1NC(=O)c1ccc2c(c1)OCCCO2", "Potency": "inactive"}, {"compound": "COc1ccc(/C=C/C(=O)N(C)C2CCS(=O)(=O)C2)cc1", "note": "(stereo not given)", "Potency": "inconclusive: 25.9 µM [activator, partial curve, poor fit]"}]}]}
